Results published in PubChem BioAssay AID2685 (National Center for Advancing Translational Sciences (NCATS), 2010).
This is one part of the list. These are further read-outs of the screen, such as a control signal, another cell line or another target. No call is given for them. The list favours compounds with an active or inconclusive main result. The note in brackets gives the kind of curve behind each potency; many fits are weak.

Assay: qHTS Assay for Lipid Storage Modulators in Drosophila S3 Cells;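 as to cell number change: cells counted by Cell Tracker Red CMTPX staining in the red channel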
Details: BODIPY lipid droplet fluorescence, 18-24 h; for cell number change: measured here: cell count max response, cells fed with added oleic acid
Procedure, shortened: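 Drosophila S3 cells loaded with oleic acid (400 uM, as added) and compounds at several concentrations; lipid droplets imaged by 488-nm laser-scanning cytometry, 500–530 nm intensity and object ratio to cell channel. Percent activity normalized to 20 uM Triacsin C.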

[1] = measured here: cell number channel AC50, cells fed with added oleic acid
[2] = measured here: lipid fluorescence (Fed channel) AC50, cells fed with added oleic acid

SMILES	cell number change [%]	AC50 [1]	AC50 [2]
O=S(=O)(/N=C(/Nc1ccc(Cl)c(S(=O)(=O)Nc2ccccc2Cl)c1)c1ccc(F)cc1)c1ccccc1	97.8	–	–
c1ccc(C2NCCn3cccc32)cc1 (configuration not stated)	48.8	16.4 µM [rising, partial curve]	–
Cc1cccc(-n2nnc3c(=O)n(CC(=O)Nc4cc(C)on4)cnc32)c1	35	5.17 µM [rising, full curve, poor fit]	–
O=C(Nc1nccs1)c1ccc2ccccc2c1	-18.6	–	–
CC(=O)c1cccc(NC(=O)COc2cc(C)on2)c1	4.19	–	6.51 µM [rising, single point]
CCn1c(=N)c(C(=O)NCc2cccnc2)cc2c(=O)n3cccc(C)c3nc21	30.9	5.17 µM [rising, partial curve]	8.2 µM [rising, partial curve, poor fit]
O=C(Nc1ccccn1)c1ccc2nc(-c3ccccc3)c(-c3ccccc3)nc2c1	-10.5	–	1.84 µM [falling, single point]
O=C(NCc1cccs1)Nc1ccc2c(c1)OCO2	–	–	0.116 µM [falling, full curve, poor fit]
N#CC1CC(c2ccccc2)=NN1c1ccccc1[N+](=O)[O-] (configuration not stated)	17.3	–	–
COC(=O)/C=C1\OC(c2ccccc2)=CC1=O	–	0.00517 µM [falling, full curve, poor fit]	–
COc1ccc(C(=O)c2oc3ccc(OC)cc3c2NC(C)=O)cc1	49.8	–	–
COc1ccc([C@H]2CC(=O)C=C(c3ccc4cc[nH]c4c3)C2)cc1	–	–	0.00461 µM [falling, full curve, poor fit]
CCOC(=O)c1c(C)[nH]c(C(=O)OCC(=O)NCCc2ccc(OCC)c(OCC)c2)c1C	-58.5	8.2 µM [falling, partial curve]	5.8 µM [falling, partial curve]
CCOc1ccccc1Nc1nc(N)nc(CSc2nncn2C)n1	145	25.9 µM [rising, single point]	–
Cc1ccc(-c2nn(-c3ccccc3)cc2C(N)=O)o1	156	–	18.4 µM [rising, partial curve]
Cc1ccccc1NC(=O)C1CCCN(c2nnc(N3CCCC3=O)s2)C1 (configuration not stated)	13.5	–	6.51 µM [rising, single point]
O=C(OC1CCOC1=O)c1cccc(S(=O)(=O)Nc2ccc(F)cc2)c1 (configuration not stated)	-29.5	–	0.731 µM [falling, full curve]
CC(=O)C1=C(O)C(=O)N(c2ccccn2)C1c1cccc(F)c1 (configuration not stated)	13.9	–	0.58 µM [falling, single point]
CCC(CO)[n+]1c(C)cc(/C=C2\Sc3ccccc3N2Cc2ccccc2)cc1C (configuration not stated)	-58.9	5.8 µM [falling, full curve]	–
Cn1cc(CCC(=O)NCc2cccc(Cl)c2)c2ccccc21	22.5	4.11 µM [rising, full curve, poor fit]	–
CN(c1ccccc1)S(=O)(=O)c1ccc(NC(=S)NC(=O)c2ccccc2)cc1	–	0.92 µM [rising, partial curve]	2.91 µM [rising, full curve]

SMILES	cell number change [%]	AC50 [1]	AC50 [2]
CCOC(=O)N1CCN(C(=O)COC(=O)CNC(=O)c2ccc(Cl)cc2Cl)CC1	-25	1.46 µM [falling, full curve, poor fit]	–
O=C1CCN(Cc2ccccc2)CCN1CCOc1ccccc1	16.2	–	0.651 µM [rising, single point]
Cc1c(C(=O)N(Cc2ccccc2)C(C)C)oc2ccc(S(=O)(=O)N3CCOCC3)cc12	-33.6	4.11 µM [falling, full curve, poor fit]	14.6 µM [falling, partial curve]
Cc1cc(C(=O)N/N=C2\CC(=O)CC(C)(C)C2)c(C)n1-c1ccc(F)cc1	23.7	–	16.4 µM [rising, single point]
C/C(=N/NC(=O)C(C)n1nc(C)c([N+](=O)[O-])c1C)c1ccc(OCC(N)=O)cc1 (configuration not stated)	59	25.9 µM [rising, partial curve, poor fit]	29.1 µM [rising, single point]
CCc1ccccc1NC(=O)c1ccc(S(=O)(=O)N2CCCC2)cc1	-11.5	–	29.1 µM [falling, partial curve, poor fit]
COc1ccccc1C(=O)NC(=O)Nc1cccc(Cl)c1	-0.708	–	–
CN(CCC#N)C(=O)COC(=O)c1cc(Cl)cc(Cl)c1N	-9.06	–	0.00461 µM [falling, full curve, poor fit]
CCc1cccc(OCC2Cn3c(nc4c3c(=O)[nH]c(=O)n4C)O2)c1 (configuration not stated)	14.8	–	–
COCCCNc1ncnc2c1[nH]c1ccccc12	7.32	–	6.51 µM [rising, single point]
Cc1cc(S(=O)(=O)N2c3ccc(F)cc3CCC2C)ccc1-n1cnnn1 (configuration not stated)	-24.8	–	29.1 µM [falling, single point]
CCCN1C(=O)C2(SC(NC(C)=O)=NN2C(C)=O)c2cc(C)cc(C)c21 (configuration not stated)	-1.87	–	29.1 µM [falling, single point]
Nc1cccc2c1C(=O)N(CCOc1ccc(F)cc1)C2=O	11.3	–	0.164 µM [falling, full curve, poor fit]
O=C(/C=C/c1cccc(Br)c1)OCC(=O)N1CCN(c2ccccc2)CC1	-2.9	–	4.11 µM [rising, single point]
CCOC(=O)C1C(=O)NC(SC)=C(C#N)C1c1ccccc1F (configuration not stated)	1.25	–	–
CCN(CC)c1ccc2c(Cl)c(Br)c(=O)oc2c1	-9.77	–	20.6 µM [falling, partial curve, poor fit]
COc1ccc(Cc2nnc(NC(=O)CS(=O)(=O)c3ccc(C)cc3)s2)cc1OC	17	–	–
O=C1CC(C(=O)NCCc2ccccc2)SC(=Nc2ccccc2)N1 (configuration not stated)	-18.3	–	29.1 µM [rising, single point]
Cc1sc(NC(=O)C2=COCCO2)c(C#N)c1C	-16	–	–
COc1ccc(NC(=O)CN(C)S(=O)(=O)c2ccc(Cl)cc2)cn1	8.8	–	6.51 µM [rising, single point]
O=C(Cc1cccc2ccccc12)Nc1nnc(-c2cccc([N+](=O)[O-])c2)s1	14.4	–	7.31 µM [rising, partial curve]

SMILES	cell number change [%]	AC50 [1]	AC50 [2]
Cc1cc(N2CCCCC2)n2ncc(-c3ccccc3)c2n1	-23.7	–	13 µM [falling, partial curve, poor fit]
Cc1cc(C)c(C)c(S(=O)(=O)NNC(=O)c2cccc(S(=O)(=O)N3CCOCC3)c2)c1C	0.235	–	14.6 µM [falling, partial curve]
Cc1ccc(C(=O)OCC(=O)NC(=O)NCc2ccccc2)cc1C	-35.6	13 µM [falling, partial curve]	8.2 µM [falling, partial curve, poor fit]
Cc1sc2ncnc(N(C)Cc3cccs3)c2c1C	46	5.8 µM [rising, full curve]	16.4 µM [rising, partial curve]
Cc1nc2ccc(NC(=O)c3ccc([N+](=O)[O-])cc3)cc2s1	-34.3	–	0.92 µM [falling, full curve, poor fit]
CCN1CCN(C(=O)Cn2c(=O)sc3ccccc32)CC1	–	–	8.2 µM [rising, partial curve]
Cc1cc(C(=O)COC(=O)c2cccn2C)c(C)n1Cc1ccco1	38.9	3.66 µM [rising, full curve]	29.1 µM [rising, single point]
O=C(Nc1ccc2c(c1)CCC2)C1CCN(c2c3c(nc4ncnn24)CCC3)CC1	-10.7	–	32.6 µM [falling, single point]
N#Cc1ccccc1NCc1ccccc1	2.93	–	0.116 µM [rising, full curve, poor fit]
COc1ccc(OCC(=O)Nc2nnc(S(=O)(=O)N3CCCCCC3)s2)cc1	-12.9	–	–
CCOC(=O)c1cc2c(=O)c3ccccc3oc2nc1C	-18.1	–	29.1 µM [falling, single point]
O=C(CSc1ncnc2scc(-c3ccccc3)c12)N1CCN(c2ccccc2F)CC1	-1.97	–	3.26 µM [rising, single point]
COC(=S)Nc1cccc(C(F)(F)F)c1	-19.4	6.51 µM [falling, single point]	6.51 µM [falling, partial curve, poor fit]
Cc1ccc(Cn2ccnc2C(=O)Nc2ccccc2)cc1	17.8	0.082 µM [rising, full curve, poor fit]	0.103 µM [rising, full curve, poor fit]
CC(=O)c1cccc(NC(=O)C(C)OC(=O)c2cc(=O)[nH]c3ccccc23)c1 (configuration not stated)	-8.75	–	5.17 µM [rising, partial curve]
Cc1ccccc1-c1nc(C#N)c(NCc2ccco2)o1	-14	–	–
CCn1nnc(-c2ccccc2NC(=O)c2ccc(-n3cnnn3)cc2)n1	–	0.651 µM [rising, partial curve]	0.82 µM [rising, partial curve]
COC(=O)c1ccsc1NC(=O)CSc1nnnn1-c1ccccc1SC	151	1.64 µM [rising, full curve]	29.1 µM [rising, single point]
O=C(Nc1ccccc1C(=O)Nc1ccc2c(c1)OCO2)c1ccco1	-0.128	–	0.58 µM [rising, single point]

Single records, from the list above.
C/C(=N/NC(=O)C(C)n1nc(C)c([N+](=O)[O-])c1C)c1ccc(OCC(N)=O)cc1 (configuration not stated) in the list: cell number change [%]: 59; AC50 [1]: 25.9 µM [rising, partial curve, poor fit]; AC50 [2]: 29.1 µM [rising, single point]
Cc1sc(NC(=O)C2=COCCO2)c(C#N)c1C in the list: cell number change [%]: -16
COCCCNc1ncnc2c1[nH]c1ccccc12 in the list: cell number change [%]: 7.32; AC50 [2]: 6.51 µM [rising, single point]
